{"source": "patent US20200069664A1", "about": "“METHODS FOR TREATING INFECTION” (Salix Pharmaceuticals, Ltd, priority 2010, published 2020)", "tested_on": "HEp-2 cells", "experiment": "Cytokine array of supernatants of treated HEp-2 cells", "details": "64 μg/ml, 24 h; Panomics array of 36 cytokines", "note": "At least one structure is not confirmed: it was looked up by name or label, or the drawing left a doubt."}
{"smiles": "C[C@H]1c2cccc(O)c2C(=O)C2=C(O)[C@]3(O)C(=O)C(C(N)=O)=C(O)[C@@H](N(C)C)[C@@H]3[C@@H](O)[C@@H]21", "note": "[doxycycline]", "values": [{"measurement": "Cytokines detected in supernatants of treated HEp-2 cells", "value": "GM-CSF, MIP4, MIPS, MMP3, RANTES, TGF-b, IFN-g, TNFRI, TNFRII, VCAM-1, VEGF, IL-4, IL-6, IL-8, IL-12 (p40), and IL-15"}]}
